Laboratory results taken from publication PMC9396447.
No constants are given. Whether binding was seen depends on the method and setting. Binding seen in cells or lysates may run through a third protein. Some binding calls cover weakened binding; strength is not graded here.

Molecular target: T1, frataxin (endogenous, mouse cortex / cultured cortical neurons) (mouse (endogenous in mouse cortex)) (UniProt O35943)
T1 sequence: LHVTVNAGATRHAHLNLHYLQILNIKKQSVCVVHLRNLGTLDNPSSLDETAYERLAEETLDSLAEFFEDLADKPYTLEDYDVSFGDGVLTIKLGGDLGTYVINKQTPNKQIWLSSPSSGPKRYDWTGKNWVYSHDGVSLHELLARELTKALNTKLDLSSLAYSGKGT
Assay: co-IP; mouse cortical (brain) homogenates; anti-frataxin antibody (Abcam) overnight at 4°C, protein G beads 2 h at 4°C, four washes with RIPA buffer; blot; control IgG

B1: Mitochondrial protein ISCU2 (endogenous, mouse cortex) (protein, UniProt Q9D7P6 36-168)
chain: YHKKVVDHYENPRNVGSLDKTSKNVGTGLVGAPACGDVMKLQIQVDEKGKIVDARFKTFGCGSAIASSSLATEWVKGKTVEEALTIKNTDIAKELCLPPVKLHCSMLAEDAIKAALADYKLKQESKKEEPEKQ
  binding: binds
